From paper PMC8396726
These are yes or no findings as the source states them, for the method shown. For some of these results: In cells and extracts the contact can be indirect. Some binding calls cover weakened binding; strength is not graded here.

By UniProt entry, the sequences of proteins in these tests, tags left out.
UniProt Q8IJW2: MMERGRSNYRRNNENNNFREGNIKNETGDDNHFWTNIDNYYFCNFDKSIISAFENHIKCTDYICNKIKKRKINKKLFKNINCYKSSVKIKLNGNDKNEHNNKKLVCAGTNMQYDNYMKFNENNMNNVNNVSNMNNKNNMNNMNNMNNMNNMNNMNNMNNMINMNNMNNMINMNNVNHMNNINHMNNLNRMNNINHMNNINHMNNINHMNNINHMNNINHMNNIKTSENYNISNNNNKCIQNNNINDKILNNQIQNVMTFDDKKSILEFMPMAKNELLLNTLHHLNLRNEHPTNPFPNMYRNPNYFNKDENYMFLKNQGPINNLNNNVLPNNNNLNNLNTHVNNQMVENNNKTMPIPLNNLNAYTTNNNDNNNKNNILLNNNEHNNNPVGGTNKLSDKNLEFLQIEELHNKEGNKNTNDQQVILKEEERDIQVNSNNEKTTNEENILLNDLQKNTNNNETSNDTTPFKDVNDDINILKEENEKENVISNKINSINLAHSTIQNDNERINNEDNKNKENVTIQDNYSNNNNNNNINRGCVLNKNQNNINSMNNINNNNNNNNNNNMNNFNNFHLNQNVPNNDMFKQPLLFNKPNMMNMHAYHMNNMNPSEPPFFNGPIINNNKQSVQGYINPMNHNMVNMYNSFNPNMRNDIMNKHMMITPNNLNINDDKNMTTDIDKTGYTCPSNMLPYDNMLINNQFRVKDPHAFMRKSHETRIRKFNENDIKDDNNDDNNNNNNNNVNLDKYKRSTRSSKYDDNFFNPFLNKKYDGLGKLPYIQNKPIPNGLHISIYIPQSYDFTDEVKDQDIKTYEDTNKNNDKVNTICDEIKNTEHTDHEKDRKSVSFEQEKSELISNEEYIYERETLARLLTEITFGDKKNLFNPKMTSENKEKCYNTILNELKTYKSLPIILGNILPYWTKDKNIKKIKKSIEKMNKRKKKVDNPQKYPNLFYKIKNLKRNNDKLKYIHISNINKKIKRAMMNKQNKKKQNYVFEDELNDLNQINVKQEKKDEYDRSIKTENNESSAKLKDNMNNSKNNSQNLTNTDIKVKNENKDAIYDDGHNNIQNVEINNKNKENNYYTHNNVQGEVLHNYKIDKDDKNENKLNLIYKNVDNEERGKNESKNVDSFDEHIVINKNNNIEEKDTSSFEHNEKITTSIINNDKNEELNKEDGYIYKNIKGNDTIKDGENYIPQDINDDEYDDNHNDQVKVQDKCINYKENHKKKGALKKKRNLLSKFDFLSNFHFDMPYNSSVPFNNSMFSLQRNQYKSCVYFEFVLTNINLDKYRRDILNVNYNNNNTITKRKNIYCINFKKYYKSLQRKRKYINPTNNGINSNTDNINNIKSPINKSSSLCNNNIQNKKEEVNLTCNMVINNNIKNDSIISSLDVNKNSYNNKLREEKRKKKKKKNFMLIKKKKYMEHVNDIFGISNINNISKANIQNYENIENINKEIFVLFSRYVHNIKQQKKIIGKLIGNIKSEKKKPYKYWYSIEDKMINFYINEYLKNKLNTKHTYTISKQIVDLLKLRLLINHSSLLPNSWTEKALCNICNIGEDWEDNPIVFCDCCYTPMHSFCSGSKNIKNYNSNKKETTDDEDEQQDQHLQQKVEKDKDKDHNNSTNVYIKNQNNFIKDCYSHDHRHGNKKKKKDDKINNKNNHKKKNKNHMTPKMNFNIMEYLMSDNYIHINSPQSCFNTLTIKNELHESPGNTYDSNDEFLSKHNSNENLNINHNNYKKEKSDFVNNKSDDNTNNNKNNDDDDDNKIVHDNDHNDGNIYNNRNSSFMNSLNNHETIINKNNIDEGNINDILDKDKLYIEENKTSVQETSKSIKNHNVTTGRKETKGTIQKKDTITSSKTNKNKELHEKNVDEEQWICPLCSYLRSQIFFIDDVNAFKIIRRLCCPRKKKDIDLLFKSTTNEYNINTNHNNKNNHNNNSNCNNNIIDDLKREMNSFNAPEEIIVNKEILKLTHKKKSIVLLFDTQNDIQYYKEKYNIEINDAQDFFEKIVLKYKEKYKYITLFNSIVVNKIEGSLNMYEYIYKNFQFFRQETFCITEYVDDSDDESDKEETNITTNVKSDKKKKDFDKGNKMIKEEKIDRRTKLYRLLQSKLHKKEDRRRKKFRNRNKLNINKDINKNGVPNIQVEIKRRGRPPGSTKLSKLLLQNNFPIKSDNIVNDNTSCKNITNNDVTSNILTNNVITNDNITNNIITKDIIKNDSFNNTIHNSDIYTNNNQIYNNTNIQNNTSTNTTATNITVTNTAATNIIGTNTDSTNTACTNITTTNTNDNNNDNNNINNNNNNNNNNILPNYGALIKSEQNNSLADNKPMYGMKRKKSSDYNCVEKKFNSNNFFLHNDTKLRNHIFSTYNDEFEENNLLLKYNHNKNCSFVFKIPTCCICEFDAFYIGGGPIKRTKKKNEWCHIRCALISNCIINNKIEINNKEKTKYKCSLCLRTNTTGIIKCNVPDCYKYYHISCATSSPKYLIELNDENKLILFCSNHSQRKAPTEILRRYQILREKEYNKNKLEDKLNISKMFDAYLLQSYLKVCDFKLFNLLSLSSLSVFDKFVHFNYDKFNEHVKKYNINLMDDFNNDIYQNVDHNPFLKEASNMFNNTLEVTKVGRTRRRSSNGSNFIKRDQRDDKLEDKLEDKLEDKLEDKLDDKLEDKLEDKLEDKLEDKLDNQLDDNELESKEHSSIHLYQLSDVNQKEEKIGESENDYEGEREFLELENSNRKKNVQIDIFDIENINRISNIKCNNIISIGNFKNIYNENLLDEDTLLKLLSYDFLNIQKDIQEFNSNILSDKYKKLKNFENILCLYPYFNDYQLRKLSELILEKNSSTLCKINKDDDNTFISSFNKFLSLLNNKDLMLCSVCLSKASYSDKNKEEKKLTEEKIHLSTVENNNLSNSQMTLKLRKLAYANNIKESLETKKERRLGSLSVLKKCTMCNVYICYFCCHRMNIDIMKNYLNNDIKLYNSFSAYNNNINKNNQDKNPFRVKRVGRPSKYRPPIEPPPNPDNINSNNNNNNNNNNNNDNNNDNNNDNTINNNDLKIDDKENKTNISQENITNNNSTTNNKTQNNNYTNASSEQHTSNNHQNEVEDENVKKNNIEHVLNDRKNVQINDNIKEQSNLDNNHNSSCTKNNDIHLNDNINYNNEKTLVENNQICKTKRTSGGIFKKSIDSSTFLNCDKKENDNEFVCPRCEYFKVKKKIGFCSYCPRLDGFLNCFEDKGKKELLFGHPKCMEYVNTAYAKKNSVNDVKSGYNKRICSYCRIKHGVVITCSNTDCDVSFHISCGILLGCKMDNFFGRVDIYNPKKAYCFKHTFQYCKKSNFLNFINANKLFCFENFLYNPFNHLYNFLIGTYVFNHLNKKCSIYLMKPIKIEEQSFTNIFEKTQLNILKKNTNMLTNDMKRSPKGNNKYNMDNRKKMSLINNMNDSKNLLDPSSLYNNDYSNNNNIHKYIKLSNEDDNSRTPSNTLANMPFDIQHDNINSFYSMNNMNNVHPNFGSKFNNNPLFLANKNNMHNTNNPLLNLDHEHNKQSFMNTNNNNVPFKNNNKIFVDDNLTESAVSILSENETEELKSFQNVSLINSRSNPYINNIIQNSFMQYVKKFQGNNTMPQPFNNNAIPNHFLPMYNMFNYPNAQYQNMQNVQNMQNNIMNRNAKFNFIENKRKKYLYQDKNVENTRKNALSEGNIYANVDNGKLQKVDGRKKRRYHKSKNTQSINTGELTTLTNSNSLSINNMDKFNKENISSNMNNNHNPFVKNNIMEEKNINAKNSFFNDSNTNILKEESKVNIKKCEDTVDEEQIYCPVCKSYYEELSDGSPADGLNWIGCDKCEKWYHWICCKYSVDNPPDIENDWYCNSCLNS
UniProt Q8IB67: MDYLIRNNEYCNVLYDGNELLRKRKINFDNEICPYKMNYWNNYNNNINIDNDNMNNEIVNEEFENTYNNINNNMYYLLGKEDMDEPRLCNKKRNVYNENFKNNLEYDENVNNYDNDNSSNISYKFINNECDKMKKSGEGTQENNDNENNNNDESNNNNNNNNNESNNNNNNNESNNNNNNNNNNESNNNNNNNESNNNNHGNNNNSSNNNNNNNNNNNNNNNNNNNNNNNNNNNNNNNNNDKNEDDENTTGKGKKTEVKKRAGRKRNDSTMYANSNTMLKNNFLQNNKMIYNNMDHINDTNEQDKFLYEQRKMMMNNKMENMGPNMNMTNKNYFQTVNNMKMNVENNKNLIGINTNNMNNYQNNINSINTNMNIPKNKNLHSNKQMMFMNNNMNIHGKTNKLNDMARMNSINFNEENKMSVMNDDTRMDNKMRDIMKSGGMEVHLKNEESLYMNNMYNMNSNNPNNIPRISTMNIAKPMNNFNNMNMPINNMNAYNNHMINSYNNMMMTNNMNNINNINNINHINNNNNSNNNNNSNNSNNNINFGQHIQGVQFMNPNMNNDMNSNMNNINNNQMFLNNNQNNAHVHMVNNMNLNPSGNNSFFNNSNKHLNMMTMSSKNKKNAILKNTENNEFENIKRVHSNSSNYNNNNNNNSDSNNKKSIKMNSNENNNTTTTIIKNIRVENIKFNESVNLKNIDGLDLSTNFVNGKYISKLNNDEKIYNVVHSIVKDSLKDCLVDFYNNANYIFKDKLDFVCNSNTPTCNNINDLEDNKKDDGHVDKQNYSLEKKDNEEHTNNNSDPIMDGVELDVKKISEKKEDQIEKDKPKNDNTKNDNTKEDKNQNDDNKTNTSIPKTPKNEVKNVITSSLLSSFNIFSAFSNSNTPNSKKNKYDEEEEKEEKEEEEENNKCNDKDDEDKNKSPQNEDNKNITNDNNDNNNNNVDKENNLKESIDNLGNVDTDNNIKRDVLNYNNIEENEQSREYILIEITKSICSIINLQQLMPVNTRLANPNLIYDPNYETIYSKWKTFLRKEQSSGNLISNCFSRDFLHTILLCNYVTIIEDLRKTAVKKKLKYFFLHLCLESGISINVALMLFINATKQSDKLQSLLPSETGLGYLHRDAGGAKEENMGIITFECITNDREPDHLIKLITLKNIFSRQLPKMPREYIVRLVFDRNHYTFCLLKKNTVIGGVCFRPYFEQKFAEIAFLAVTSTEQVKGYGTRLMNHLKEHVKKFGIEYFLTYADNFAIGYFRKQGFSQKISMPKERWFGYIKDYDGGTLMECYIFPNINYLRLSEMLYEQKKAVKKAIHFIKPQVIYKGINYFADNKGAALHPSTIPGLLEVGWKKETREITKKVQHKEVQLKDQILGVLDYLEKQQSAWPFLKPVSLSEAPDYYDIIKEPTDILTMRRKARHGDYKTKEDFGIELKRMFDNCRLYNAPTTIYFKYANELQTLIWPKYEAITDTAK

Tests used:
[1] = biological target: PfPHD1 (P. falciparum (endogenous in 3D7 parasites)) (UniProt Q8IJW2); experiment: co-IP; nuclear extracts of trophozoites of the PfGCN5::PTP line; IP with anti-PfPHD1 or anti-PfPHD2 antibodies (agarose conjugated); blot with anti-protein C antibodies; pre-immune sera as control
[2] = biological target: PfPHD2 (P. falciparum (endogenous in 3D7 parasites)) (UniProt Q8ILC9); experiment: as above
[3] = biological target: PfPHD2 (P. falciparum (endogenous in 3D7 parasites)) (UniProt Q8ILC9); experiment: co-IP; lysates of 3D7 wild-type parasites; agarose conjugated with anti-PfPHD1 or anti-PfPHD2 antibodies; blot with anti-PfPHD2 or anti-PfPHD1 antibodies
[4] = biological target: PfGCN5::PTP (P. falciparum 3D7) (UniProt Q8IB67); experiment: SEC; native complex from nuclear extract of PfGCN5::PTP parasites (IgG beads, TEV protease elution) on a Superose 6 column; fractions blotted with anti-PTP, anti-PfPHD1 and anti-PfPHD2 antibodies and tested for HAT activity
[5] = biological target: PfPHD1 (P. falciparum (endogenous in 3D7 parasites)) (UniProt Q8IJW2); experiment: co-IP; lysates of 3D7 wild-type parasites; agarose conjugated with anti-PfPHD1 or anti-PfPHD2 antibodies; blot with anti-PfPHD2 or anti-PfPHD1 antibodies
[6] = biological target: PfPHD1 (P. falciparum (endogenous in 3D7 parasites)) (UniProt Q8IJW2); experiment: SEC; native complex from nuclear extract of PfGCN5::PTP parasites (IgG beads, TEV protease elution) on a Superose 6 column; fractions blotted with anti-PTP, anti-PfPHD1 and anti-PfPHD2 antibodies and tested for HAT activity

Substance | binding [1] | binding [2] | binding [3] | binding [4] | binding [5] | binding [6]
PfGCN5::PTP (from UniProt Q8IB67 1-1465) (enzyme) | binds | binds | – | – | – | –
PfPHD1 (from UniProt Q8IJW2 1-3853) | – | – | binds | binds | – | –
PfPHD2 (from UniProt Q8ILC9 1-5757) | – | – | – | binds | binds | binds
